Results deposited as PubChem BioAssay AID1259307 (Sanger Institute, 2017)
Here is an unselected part of 794 deposited reagents. Over the whole deposit, 15 (1.9%) were called active. 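Calls reflect lethality without any drug; synergy scores did not enter the calls.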 No viability above 1 is reported: the scale is capped. Further read-outs or replicates are left out here. No sequences are given here. Not stated in the record: the amount of reagent, the time to read-out.

Screen: 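Identify kinases needed for SW620 growth or enhancing BYL719, cetuximab or trametinib effects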 (primary screen)
System: SW620 colorectal cancer cells
Reagent: siRNA pool against human genes
Challenge: anchor drugs BYL719 at 1 µM, cetuximab at 5 µg/ml or trametinib at 10 nM, each beside a DMSO vehicle arm
Read-out: 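Cell viability in each well relative to non-targeting controls, averaged over replicates and turned into a robust z-score; synergy with BYL719 (1 µM), cetuximab (5 µg/ml), trametinib (10 nM) versus DMSO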
Reading the numbers: viability robust z-score, no drug and viability vs control, no drug: higher = more viable cells; synergy score with BYL719: higher = stronger synthetic lethality with the drug
Call rule: 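a knock-down counts as lethal alone if its drug-free robust viability z-score is lower than -3, regardless of synergy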
Calls: active = essential (lethal alone); inactive = no change alone

target gene	viability robust z-score, no drug	viability vs control, no drug	synergy score with BYL719	call
CAMK2D	0.27	0.957	-0.0443	inactive
KALRN	0.325	0.962	0.046	inactive
EFNB3	-3.77	0.584	-0.0778	active
PIK3C3	0.736	1	-0.0675	inactive
PFKFB2	0.736	1	0.00531	inactive
STK4	0.109	0.942	-0.0551	inactive
ADCK1	-1.11	0.83	-0.0477	inactive
CDK5R1	-0.921	0.847	-0.0594	inactive
TEX14	0.478	0.976	0.000298	inactive
COMMD3	0.736	1	-0.00263	inactive
PRKCD	0.736	1	0.0424	inactive
CAMK2G	0.736	1	0.0311	inactive
CSNK1G2	0.736	1	-0.0131	inactive
VRK3	-1.93	0.754	0.0104	inactive
PRKACG	0.736	1	-0.0919	inactive
KIT	-0.691	0.868	-0.146	inactive
SRMS	-0.484	0.887	-0.0171	inactive
NLK	-1.32	0.811	-0.0802	inactive
CAMK1D	0.288	0.959	-0.0247	inactive
DGKA	0.736	1	0.0372	inactive

Part of the list above, reduced to “viability vs control, no drug”:
PRKACG	1
KIT	0.868
